PubChem BioAssay AID504784 | Drosophila RNAi Screening Center | 2011

- Screen: 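Fly genes whose silencing alters how much lipid cells keep in droplets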 (primary screen)
- Cell system: Drosophila Kc167 embryonic cells
- Reagents: long dsRNA against Drosophila genes, about 250 ng dsRNA per well
- Duration: 4 days
- Challenge: cells fed 400 µM oleic acid bound to BSA
- Measured: 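Microscope images give a droplet-to-nucleus area ratio, taken as log and converted to a screen-wide B-score; higher values mean greater lipid storage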
- Direction: droplet/nuclear area B-score: higher = more stored lipid (overstorage)
The deposit covers about 17,000 reagents; shown is an unselected part of those that have a named target and a result. 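Each column is one replicate's B-score; the combined score over replicates was not deposited, so single values may mislead.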 A plus sign joins genes that one reagent is predicted to hit. Reagent sequences are not shown.

The first 2 records as a preview:
gene | DRSC id | droplet/nuclear area B-score, replicate 1 | droplet/nuclear area B-score, replicate 2 | droplet/nuclear area B-score, replicate 3
puml | DRSC06793 | 1.77 | 0.507 | –
Cog2 | DRSC16987 | 0.284 | -1.41 | –

The listing, repeating the preview:
gene | DRSC id | droplet/nuclear area B-score, replicate 1 | droplet/nuclear area B-score, replicate 2 | droplet/nuclear area B-score, replicate 3
puml | DRSC06793 | 1.77 | 0.507 | –
Cog2 | DRSC16987 | 0.284 | -1.41 | –
Efr | DRSC18322 | 0.0202 | 0.803 | –
CG5623 | DRSC15848 | 0.0341 | 1.58 | –
CG4390 | DRSC15572 | -0.696 | 0.0126 | –
CG10462 | DRSC02058 | 1.08 | -1.45 | –
Nuak | DRSC14414 | 0.558 | 0.21 | –
Nuak | DRSC14415 | 0.392 | 1.46 | –
Nuak | DRSC14416 | 0.209 | -0.161 | –
CPT2 | DRSC08553 | 0.121 | -1.62 | –
Mipp2 | DRSC18682 | 0.0858 | 0.837 | 0.0865
kappaB-Ras + CG30503 | DRSC06619 | 0.0955 | -0.602 | –
kappaB-Ras + CG30503 | DRSC07636 | -0.225 | 1.53 | –
Cyp4p3 | DRSC07374 | -0.703 | -0.28 | –
CG30280 | DRSC21761 | -0.866 | 0.0133 | –
CG13587 | DRSC04223 | -1.98 | 1.88 | –
CG5194 | DRSC10492 | 2.01 | -0.753 | –
Rh50 | DRSC08692 | -1.08 | 0.603 | –
EMC10 | DRSC11850 | 0.329 | 0.585 | –
thr | DRSC07706 | 3.96 | 5.85 | –
CG13958 (retired record) | DRSC02300 | -0.475 | -0.3 | –
AnxB11 | DRSC19331 | 0.288 | 1.04 | -0.191
Hr3 | DRSC06118 | 0.649 | -1.62 | –
Hr3 | DRSC07441 | -1.47 | -0.521 | –
spn-B | DRSC17063 | 0.583 | 0.279 | –
CG16959 | DRSC10230 | 1.07 | 1.98 | -0.0057
CG7453 | DRSC20046 | -0.402 | -0.674 | –
CG4017 | DRSC02733 | -0.00603 | 0.374 | –
CG7173 | DRSC11812 | 0.997 | 0.809 | 1.39
CG7173 | DRSC23252 | -0.729 | 0.027 | –
E(Pc) | DRSC05281 | -0.0363 | 0.237 | –
E(Pc) | DRSC07408 | 0.687 | 0.868 | –
CG31473 | DRSC15443 | -0.797 | -0.032 | –
CG44153 | DRSC02228 | -0.765 | 0.00873 | –
CG44153 | DRSC02229 | 0.663 | -1.07 | –
CG44153 | DRSC02902 | -0.523 | -0.763 | –
CG44153 | DRSC02903 | -0.465 | 0.13 | –
